PubChem BioAssay AID504774, Drosophila RNAi Screening Center – 2011
Purpose: 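Knock-downs that shift viability of MMS-exposed cells relative to untreated ones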 (primary screen). Cell system: Drosophila Kc167 cells. Knock-down reagent: long dsRNA against Drosophila genes, about 0.25 µg dsRNA per well. Timing: about 6 days: 3 days knock-down, then 3 days with or without MMS. Challenge: methyl methanesulphonate 0.004% (w/v) for 3 days after knock-down. Detection: 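Viability in wells given MMS, read as ATP luminescence, normalised by quantiles plate by plate and averaged across replicates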. Scale: mean viability with MMS and viability with MMS: higher = more surviving cells after MMS.
The deposit covers about 23,000 reagents; shown is a random part of those that have a named target and a result. 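Values are quantile-normalised luminescence on an arbitrary scale; higher means more cells surviving MMS.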 The numbers tell different reagents against one gene apart.

| predicted target | reagent no. | mean viability with MMS | viability with MMS, replicate 1 | viability with MMS, replicate 2 |
| --- | --- | --- | --- | --- |
| SmD2 | 1 | 3.28e6 | 3.68e6 | 3.77e6 |
| srw | 1 | 3.45e6 | 3.92e6 | 3.93e6 |
| twit | 1 | 3.63e6 | 4.25e6 | 4.11e6 |
| Tdrd3 | 1 | 3.64e6 | 4.22e6 | 4.01e6 |
| CG4362 | 1 | 3.71e6 | 4.30e6 | 4.12e6 |
| CG18735 | 1 | 3.60e6 | 4.10e6 | 4.07e6 |
| CG34160 | 1 | 3.60e6 | 3.96e6 | 4.18e6 |
| Rfx | 1 | 3.55e6 | 4.03e6 | 4.01e6 |
| sog | 1 | 3.47e6 | 3.92e6 | 3.93e6 |
| Miro | 1 | 3.45e6 | 3.96e6 | 3.86e6 |
| Dim1 | 1 | 3.18e6 | 3.55e6 | 3.47e6 |
| Nup62 | 1 | 3.18e6 | 3.71e6 | 3.66e6 |
| Kap3 | 1 | 3.46e6 | 3.90e6 | 3.89e6 |
| CG9117 | 1 | 3.43e6 | 3.94e6 | 3.81e6 |
| CG14218 | 1 | 3.51e6 | 3.95e6 | 4.04e6 |
| CG31534 (retired record) | 1 | 3.44e6 | 3.94e6 | 3.83e6 |
| CG31534 (retired record) | 2 | 3.49e6 | 4.03e6 | 3.85e6 |
| stw | 1 | 3.60e6 | 4.01e6 | 4.17e6 |
| stw | 2 | 3.56e6 | 3.99e6 | 4.09e6 |
| stw | 3 | 3.32e6 | 3.83e6 | 3.89e6 |
| Vps39 | 1 | 3.44e6 | 3.96e6 | 3.85e6 |
| lola | 1 | 3.25e6 | 3.85e6 | 3.85e6 |
| lola | 2 | 3.50e6 | 3.93e6 | 4.03e6 |
| lola | 3 | 3.61e6 | 4.10e6 | 4.04e6 |
| lola | 4 | 3.33e6 | 3.90e6 | 3.84e6 |
| lola | 5 | 3.57e6 | 3.91e6 | 4.15e6 |
| lola | 6 | 3.44e6 | 3.90e6 | 3.87e6 |
| lola | 7 | 3.45e6 | 3.97e6 | 3.87e6 |
| lola | 8 | 3.59e6 | 4.10e6 | 4.05e6 |
| lola | 9 | 3.44e6 | 3.87e6 | 3.95e6 |
| lola | 10 | 2.99e6 | 3.64e6 | 3.63e6 |
| lola | 11 | 3.55e6 | 3.90e6 | 4.15e6 |
| lola | 12 | 3.39e6 | 3.81e6 | 3.88e6 |

5 successive reagents from above, quoted:
| predicted target | reagent no. | mean viability with MMS | viability with MMS, replicate 1 | viability with MMS, replicate 2 |
| --- | --- | --- | --- | --- |
| lola | 6 | 3.44e6 | 3.90e6 | 3.87e6 |
| lola | 7 | 3.45e6 | 3.97e6 | 3.87e6 |
| lola | 8 | 3.59e6 | 4.10e6 | 4.05e6 |
| lola | 9 | 3.44e6 | 3.87e6 | 3.95e6 |
| lola | 10 | 2.99e6 | 3.64e6 | 3.63e6 |
